# According to patent publication US11279626B2, “Octamethylcyclotetrasiloxane interacts with lithium ions” (Board of Trustees of the California State University, priority 2018, dated 2022):
# Assay: Lithium ion extraction from aqueous LiCl solutions by cyclosiloxane, aqueous layer and extract analysed by AA flame emission
# Details: for AA flame emission of aqueous sample, Avg. after: after exposure to D-4; for AA flame emission of aqueous sample, Diff. Avg.: before minus after exposure to D-4
structure (smiles),measurement,setting,value
"C[Si]1(C)O[Si](C)(C)O[Si](C)(C)O[Si](C)(C)O[Si](C)(C)O1 [D-5, decamethylpentacyclosiloxane, reference compound]",lithium ion concentration in the extract,"treated with aqueous LiCl, FTIR, 29Si and 13C NMR",minimal
"C[Si]1(C)O[Si](C)(C)O[Si](C)(C)O[Si](C)(C)O1 [D-4, octamethylcyclotetrasiloxane]",concentration of D-4/Li^+ complexes within the D-4 phase,,< 1%
same,"AA flame emission of aqueous sample, Avg. after",0.0001M LiCl,51987
same,"AA flame emission of aqueous sample, Avg. after",0.001M LiCl,202437
same,"AA flame emission of aqueous sample, Diff. Avg.",0.001M LiCl,666
same,"AA flame emission of aqueous sample, Avg. after",0.01M LiCl,138375
same,"AA flame emission of aqueous sample, Diff. Avg.",0.01M LiCl,−0.67
same,"AA flame emission of aqueous sample, Avg. after",0.1M LiCl,312995
same,"AA flame emission of aqueous sample, Diff. Avg.",0.1M LiCl,−289
same,Li^+ ions removed by an extraction,"Li^+ concentrations close to sea water (10^−5 M), depends on relative volumes and whether D-4 is distilled",20-95%
same,D-4 molecules per one Li+ ion extracted,based on AA absorptions versus LiCl standard solutions,~1000
same,"LiCl yield, calculated amount of lithium recovered","single extraction, depends on concentrations and volume ratio of aqueous solution and D-4",up to 95%
